{
  "sequences": {"note": "Chains of the proteins cited; added tags and fusions are not shown.", "UniProt P23975, whole entry": "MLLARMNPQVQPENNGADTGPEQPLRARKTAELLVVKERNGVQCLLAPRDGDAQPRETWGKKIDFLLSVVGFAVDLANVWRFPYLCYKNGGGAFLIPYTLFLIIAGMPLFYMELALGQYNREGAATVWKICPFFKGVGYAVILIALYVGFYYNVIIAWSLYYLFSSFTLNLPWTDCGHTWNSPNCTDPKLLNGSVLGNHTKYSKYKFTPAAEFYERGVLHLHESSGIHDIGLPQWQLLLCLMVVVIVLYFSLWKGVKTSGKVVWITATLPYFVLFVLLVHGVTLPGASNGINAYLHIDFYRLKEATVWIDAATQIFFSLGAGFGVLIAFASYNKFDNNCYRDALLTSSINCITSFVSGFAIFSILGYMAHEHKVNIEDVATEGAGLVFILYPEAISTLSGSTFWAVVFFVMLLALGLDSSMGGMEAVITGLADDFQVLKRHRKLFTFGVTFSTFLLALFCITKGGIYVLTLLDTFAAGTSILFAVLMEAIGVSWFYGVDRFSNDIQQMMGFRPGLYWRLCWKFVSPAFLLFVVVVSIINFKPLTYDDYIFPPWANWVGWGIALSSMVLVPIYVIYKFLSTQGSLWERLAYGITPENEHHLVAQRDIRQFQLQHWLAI", "UniProt Q01959, whole entry": "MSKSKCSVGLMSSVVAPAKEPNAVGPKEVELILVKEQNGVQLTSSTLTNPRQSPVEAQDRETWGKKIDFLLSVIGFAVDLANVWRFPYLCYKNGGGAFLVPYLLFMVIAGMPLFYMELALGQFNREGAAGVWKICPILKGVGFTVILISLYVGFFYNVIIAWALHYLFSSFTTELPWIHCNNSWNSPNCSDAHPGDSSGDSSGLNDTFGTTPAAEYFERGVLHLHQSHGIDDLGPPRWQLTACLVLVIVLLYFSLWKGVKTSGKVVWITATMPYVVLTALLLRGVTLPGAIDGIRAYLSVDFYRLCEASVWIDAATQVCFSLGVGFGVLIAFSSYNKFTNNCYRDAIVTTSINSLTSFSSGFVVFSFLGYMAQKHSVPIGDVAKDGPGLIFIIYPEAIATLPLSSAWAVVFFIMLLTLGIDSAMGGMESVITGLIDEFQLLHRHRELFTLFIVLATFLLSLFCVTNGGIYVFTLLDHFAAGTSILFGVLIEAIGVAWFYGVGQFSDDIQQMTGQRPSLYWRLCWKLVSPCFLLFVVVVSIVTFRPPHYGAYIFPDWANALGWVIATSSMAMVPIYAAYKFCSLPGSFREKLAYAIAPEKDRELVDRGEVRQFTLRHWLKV", "UniProt P31645, whole entry": "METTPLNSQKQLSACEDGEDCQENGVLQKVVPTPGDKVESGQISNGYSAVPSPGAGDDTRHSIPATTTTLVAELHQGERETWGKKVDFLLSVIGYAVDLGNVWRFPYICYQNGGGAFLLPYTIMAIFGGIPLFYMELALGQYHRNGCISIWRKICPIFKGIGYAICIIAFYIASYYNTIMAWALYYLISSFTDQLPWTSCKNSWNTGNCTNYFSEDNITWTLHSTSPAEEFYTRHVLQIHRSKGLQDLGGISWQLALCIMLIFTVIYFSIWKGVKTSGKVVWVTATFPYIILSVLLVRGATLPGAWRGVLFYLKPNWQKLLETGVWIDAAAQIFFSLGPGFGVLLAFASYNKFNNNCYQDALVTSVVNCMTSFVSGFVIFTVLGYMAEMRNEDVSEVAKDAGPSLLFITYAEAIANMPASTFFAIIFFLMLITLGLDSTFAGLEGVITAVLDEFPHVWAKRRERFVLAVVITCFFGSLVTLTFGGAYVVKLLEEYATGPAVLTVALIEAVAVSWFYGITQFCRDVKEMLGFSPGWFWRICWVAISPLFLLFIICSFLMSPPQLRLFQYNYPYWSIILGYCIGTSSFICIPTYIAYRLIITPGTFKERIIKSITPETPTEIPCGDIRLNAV"},
  "source": "paper PMC5773950",
  "about": "(British Journal of Pharmacology, 2018)",
  "key": {"[1]": {"target": "human NET (Homo sapiens, UniProt P23975)", "assay": "cell-based"}, "[2]": {"target": "human DAT (Homo sapiens, UniProt Q01959)", "assay": "cell-based"}, "[3]": {"target": "human SERT (Homo sapiens, UniProt P31645)", "assay": "cell-based"}, "[4]": {"target": "T1, 5‐HT2C receptor (Homo sapiens, UniProt P28335)", "T1 sequence (P28335 33-458)": "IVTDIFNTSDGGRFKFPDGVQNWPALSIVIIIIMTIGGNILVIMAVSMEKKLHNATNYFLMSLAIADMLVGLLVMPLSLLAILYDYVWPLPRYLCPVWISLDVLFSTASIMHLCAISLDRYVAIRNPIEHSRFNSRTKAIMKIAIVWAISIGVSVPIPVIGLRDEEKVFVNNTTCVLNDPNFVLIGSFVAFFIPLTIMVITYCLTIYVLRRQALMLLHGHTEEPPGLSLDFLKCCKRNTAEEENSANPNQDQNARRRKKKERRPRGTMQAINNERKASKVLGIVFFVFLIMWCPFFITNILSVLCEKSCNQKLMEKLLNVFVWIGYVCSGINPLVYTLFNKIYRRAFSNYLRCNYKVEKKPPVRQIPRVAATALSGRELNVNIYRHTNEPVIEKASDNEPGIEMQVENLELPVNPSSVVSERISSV", "assay": "biochemical", "type": "binding"}},
  "note": "Where two headings read alike, the source gives them in different places.",
  "data": [
    {"compound": "CCOC(=O)C1(c2ccccc2)CCN(C)CC1", "note": "[Pethidine]", "values": [
      {"measurement": "IC50", "setting": "[1]", "result": 1600, "unit": "nM"},
      {"measurement": "IC50", "setting": "[2]", "result": "> 100000", "unit": "nM"},
      {"measurement": "IC50", "setting": "[3]", "result": 1600, "unit": "nM"},
      {"measurement": "IC50", "setting": "[3]; SERT inhibition in vitro IC50", "result": 1600, "unit": "nM"},
      {"measurement": "Ki", "setting": "[4]", "result": "15000 ± 100", "unit": "nM"}
    ]}
  ]
}
